Measured values as given in US5187103A, “Colorimetric method and reagent for the assay of lithium in a test sample” (Miles Inc., priority 1991, dated 1993).

Tests used:
[1] = Interference study on TECHNICON RA-1000 analyzer (second Table IV); parameters: species or system human; settings: for recovered mM Li^+: serum with 1.0 mM LiCl
[2] = Effect of organic solvent (DEGMEE) concentration on sensitivity and selectivity; settings: 25% DEGMEE
Experimental: The UV-VIS spectra of p-nitrophenylazophenol (1.1.0) cryptand in complexation with various ions, i.e. Na^+ K^+, and Li^+, were determined in 1 to 2×10^-4 M solutions of the cryptand in 2 to 50% volume to volume (v/v) DEGMEE in water. A 1×10^-2 M stock solution of the cryptand was prepared in DEGMEE. Typically, the solutions were prepared as follows: for the spectral characteristics in 10% v/v DEGMEE, 0.2 ml of the stock solution was added to 0.8 ml DEGMEE. The diluted cryptand was quantitatively transferred to 9.0 ml of the appropriate reagent and mixed. 1N HCl was used to obtain the acid form (HL) and 1M TMAOH for the base form of the cryptand which is designated in the following tables as L. Tne resulting solutions were scanned from 700 to 300 nm on a Beckman DU-8 spectrophotometer. The spectra of the cation complexes of p-nitrophenylazophenol (1.1.0) cryptand in 10% v/v DEGMEE/1M TMAOH were obtained by adding 0.02 ml LiCl, KCl, NaCl, all 1N to their respective cuvettes containing 2 ml of reagent and scanned from 700 to 300 nm.
However, high concentration of solvent also affects the selectivity; at 25% DEGMEE, interference by 140 mM Na^+ corresponds to 0.1 mM Li^+, which is not acceptable for clinical purposes. The selectivity requirements of the lithium assay are high, in certain cases where the concentration of lithium is near 0.1 mM, the molar ratio of Li^+ :Na^+ is about 1:1500. […]

Molecule: O=C1O[C@H]([C@@H](O)CO)C(O)=C1O [Ascorbic Acid]
- recovered mM Li^+ ([1]; interferent at 50 mg/dl): 0.98 mM

Molecule: C=CC1=C(C)/C(=C/c2[nH]c(Cc3[nH]c(/C=C4\NC(=O)C(C)=C4C=C)c(C)c3CCC(=O)O)c(CCC(=O)O)c2C)NC1=O [Bilirubin]
- bilirubin level not requiring sample blank correction ([1]; icteric samples): up to 10 mg/dl
- recovered mM Li^+ ([1]; interferent at 10 mg/dl): 1.00 mM

Molecule: CN1CC(=O)NC1=N [Creatinine]
- recovered mM Li^+ ([1]; interferent at 50 mg/dl): 0.98 mM

Molecule: CCO [Ethanol]
- recovered mM Li^+ ([1]; interferent at 150 mg/dl): 1.00 mM

Molecule: O=C[C@H](O)[C@@H](O)[C@H](O)[C@H](O)CO [Glucose]
- recovered mM Li^+ ([1]; interferent at 4 g/dl): 0.99 mM

Molecule: CC(O)C(=O)O (centres unmarked) [Lactic Acid]
- recovered mM Li^+ ([1]; interferent at 85 mg/dl): 1.00 mM

Molecule: Cl.N [NH4 Cl]
- recovered mM Li^+ ([1]; interferent at 2 mM): 1.00 mM

Molecule: [Cl-].[Na+] [NaCl]
- recovered mM Li^+ ([1]; interferent at 200 mM): 0.98 mM
- recovered mM Li^+ ([1]; interferent at 500 mM): 0.98 mM

Molecule: NC(N)=O [Urea]
- recovered mM Li^+ ([1]; interferent at 50 mg/dl): 1.02 mM

Molecule: O=c1[nH]c(=O)c2[nH]c(=O)[nH]c2[nH]1 [Uric Acid]
- recovered mM Li^+ ([1]; interferent at 50 mg/dl): 1.00 mM

Molecule: O=[N+]([O-])c1ccc(N=Nc2cc3c(O)c(c2)CCN2CCOCCN(CCOCC2)CC3)cc1 [p-nitrophenylazophenol (1.1.0) cryptand]
- interference by 140 mM Na^+, corresponding Li^+ concentration [2]: 0.1 mM

Molecule: Hb: potential interfering substance, 60 mg/dl Hb (1% hemolysis)
- recovered mM Li^+ ([1]; interferent at 60 mg/dl (1% hemolysis)): 1.13 mM
